For one molecule, binding results are on record in US20230212306A1 (Daiichi Sankyo, published 2023).

The target in test [1] is T1, monkey TLR7-Flag, expressed in HEK293 cells (monkey).
T1 sequence: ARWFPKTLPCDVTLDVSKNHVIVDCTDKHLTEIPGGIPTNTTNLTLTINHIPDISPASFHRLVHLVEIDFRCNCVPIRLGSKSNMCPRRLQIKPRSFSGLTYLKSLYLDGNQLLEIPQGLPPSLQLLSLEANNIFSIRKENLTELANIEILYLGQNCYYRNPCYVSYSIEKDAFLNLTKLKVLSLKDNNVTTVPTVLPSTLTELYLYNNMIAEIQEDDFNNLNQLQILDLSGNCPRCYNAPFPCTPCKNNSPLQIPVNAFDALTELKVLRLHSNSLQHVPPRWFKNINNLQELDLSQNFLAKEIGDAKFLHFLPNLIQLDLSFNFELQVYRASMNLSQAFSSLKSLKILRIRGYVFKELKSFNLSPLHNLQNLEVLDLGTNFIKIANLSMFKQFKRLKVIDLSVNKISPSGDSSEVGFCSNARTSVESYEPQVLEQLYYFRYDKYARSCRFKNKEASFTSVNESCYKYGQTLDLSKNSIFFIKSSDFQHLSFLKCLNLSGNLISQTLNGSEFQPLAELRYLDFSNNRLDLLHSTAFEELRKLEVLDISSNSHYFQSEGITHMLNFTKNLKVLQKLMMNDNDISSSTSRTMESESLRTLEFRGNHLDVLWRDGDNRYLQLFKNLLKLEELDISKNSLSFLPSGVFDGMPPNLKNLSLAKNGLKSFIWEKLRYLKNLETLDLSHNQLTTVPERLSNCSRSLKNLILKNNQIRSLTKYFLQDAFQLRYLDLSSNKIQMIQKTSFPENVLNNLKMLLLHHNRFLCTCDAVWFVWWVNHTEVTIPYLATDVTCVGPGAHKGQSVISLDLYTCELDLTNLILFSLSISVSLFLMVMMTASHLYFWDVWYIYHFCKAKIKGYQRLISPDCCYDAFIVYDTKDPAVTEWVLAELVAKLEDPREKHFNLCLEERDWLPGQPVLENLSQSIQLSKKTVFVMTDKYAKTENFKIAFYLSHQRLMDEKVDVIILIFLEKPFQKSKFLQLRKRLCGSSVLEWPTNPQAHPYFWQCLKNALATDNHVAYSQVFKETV
The experiment in a line: flow cytometry, FIG. 27, antigen monkey TLR7.

Test [2] has the same target. The experiment in a line: flow cytometry on fixed and permeabilised HEK293 cells expressing monkey TLR7-Flag.

These are yes or no findings as the source states them, for the method shown. Some entries that bind do so weakly or less than the wild type. Tags and fused reporters may be left off the sequences shown.

B1: huAT01_H3L2_IgG1LALA antibody (antibody, V domains shown)
VH: QVQLVQSGAEVKKPGASVKVSCKASGYTFTNNWLHWVRQAPGQGLEWMGDIYPSNGRTNYAQKFQGRVTLTVDKSTSTAYMELSSLRSEDTAVYFCARERGYFDYWGQGTLVTVSS
VL: DIQMTQSPSSLSASVGDRVTITCKASQDINKYIAWYQQKPGKAPKLLIHYTSTLQPGIPSRFSGSGSGRDYTLTISSLQPEDFATYYCLQYDYLLTFGQGTKVEIKR
notes: Humanized AT01; heavy huAT01_H3_IgG1LALA, light huAT01_L2
Turning to B1, the binding result in test [1] and in test [2] was “binds” in each case.
